# No constants are given. Whether binding was seen depends on the method and setting. Binding seen in cells or lysates may run through a third protein. Some results given as binding are weak or reduced against the parent protein; the word gives no strength.
# Sequences of proteins named here, by UniProt entry; tags and fusion partners are left off. Residues count along the entry.
# UniProt Q9NZQ7, residues 19-290: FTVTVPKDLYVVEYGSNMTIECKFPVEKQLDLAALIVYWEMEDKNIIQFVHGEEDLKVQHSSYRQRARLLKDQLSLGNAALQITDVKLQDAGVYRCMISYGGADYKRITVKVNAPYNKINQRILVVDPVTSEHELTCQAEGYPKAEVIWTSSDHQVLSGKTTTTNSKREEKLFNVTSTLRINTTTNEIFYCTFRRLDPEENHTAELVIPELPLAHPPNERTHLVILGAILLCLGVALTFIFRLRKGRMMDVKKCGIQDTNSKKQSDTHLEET
# T1: UL16-binding protein 1 (human (endogenous in MHCC97H and PLC/PRF/5)) (UniProt Q9BZM6)
# T1 sequence: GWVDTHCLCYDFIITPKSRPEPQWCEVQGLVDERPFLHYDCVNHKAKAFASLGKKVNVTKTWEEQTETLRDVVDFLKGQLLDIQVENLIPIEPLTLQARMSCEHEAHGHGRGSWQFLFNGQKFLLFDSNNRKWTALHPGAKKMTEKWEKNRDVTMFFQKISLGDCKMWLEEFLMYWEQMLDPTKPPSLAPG
# B1: UL16-binding protein 1 (protein, UniProt Q9BZM6 26-216)
# chain: T1 sequence
# Tests used:
# [1] = target: T1, UL16-binding protein 1 (human (endogenous in MHCC97H and PLC/PRF/5)); test: co-IP; protein extracted from PLC/PRF/5 and MHCC97H cells, incubated with antibodies for ULBP1, PD-L1 or IgG overnight; protein A/G-agarose beads 4 h; Western blot for ULBP1 and PD-L1
# [2] = target: programmed cell death-ligand 1 (human (endogenous in MHCC97H and PLC/PRF/5)) (UniProt Q9NZQ7); test: as above
Molecule,binding [1],binding [2]
programmed cell death-ligand 1 (from UniProt Q9NZQ7 19-290),binds,
B1,,binds

# — paper PMC8456090
